Laboratory results: PubChem BioAssay AID540276 (National Center for Advancing Translational Sciences (NCATS), 2011)
The whole screen tested about 300,000 compounds, of which about 5,400 (1.8%) were called active. The inconclusive results got no clear call from the source; some entries with a clear call stand among them for comparison. Calls come from the whole dose curve; tested in HEK293 cells. Potencies of inconclusive entries are doubtful fits and often do not repeat.

Experiment: qHTS for inhibitors of binding or entry into cells for Marburg Virus
Details: Marburg virus pseudotyped entry inhibition, cell reporter; series mostly up to 37.8 µM
Potency is the fitted concentration of half-maximal effect.

Compound | Potency
O=[N+]([O-])c1cc(-c2nc(-c3ccncc3)no2)ccc1NCc1ccccc1 | inactive
N/C(=N\OC(=O)/C=C/c1ccccc1Cl)c1cccnc1 | inconclusive: 1.12 µM [activator, full curve, poor fit]
O=C(CCSCCc1ccccn1)Nc1cccc([N+](=O)[O-])c1 | inconclusive: 5.62 µM [activator, single point]
O=C(c1cn(CCOc2ccc(Cl)cc2)c2ccccc12)C1CCCCC1 | inconclusive: 1.58 µM [inhibitor, partial curve, poor fit]
Cc1cccnc1NC(=O)Nc1cccs1 | inactive
COc1ccc(/C=C/CN2CCCC(CO)(Cc3cccc(Cl)c3)C2)cc1 (stereo not given) | active: 6.31 µM
CCOC(=O)c1cc2c(ccn2C)n1CC(=O)N(Cc1ccccc1)c1ccccc1 | inconclusive: 23.1 µM [inhibitor, partial curve, poor fit]
Cc1ccc(Nc2c(-c3ccc(N4CCOCC4)cc3)nc3cnccn23)cc1 | inactive
O=C(O)c1cc(-c2ccc3c(c2)OCO3)nc2ccccc12 | inactive
O=C(N/N=C1\CCCc2oc(C(=O)O)cc21)c1ccccc1 | inconclusive: 35.5 µM [activator, partial curve, poor fit]
CCOc1ccc(-c2csc(Cn3c(CN4CCN(C)CC4)nc4ccccc4c3=O)n2)cc1 | inconclusive: 14.1 µM [inhibitor, single point]
CC(C)CCN(C(=O)c1csnn1)C(C(=O)NC1CCCCC1)c1ccc(F)cc1 (stereo not given) | inconclusive: 7.94 µM [inhibitor, partial curve, poor fit]
Cc1c(Cl)c(C(=O)NC2C3CC4CC(C3)CC2C4)nn1C (stereo not given) | inconclusive: 32.6 µM [inhibitor, partial curve, poor fit]
CCCC(C(=O)N(C)CC(=O)Nc1ccc(N2CCOCC2)cc1)c1ccccc1 (stereo not given) | inactive
Cc1ccc(Nc2nnc(SCC(=O)Nc3cccc(S(=O)(=O)NC4=NCCCCC4)c3)s2)c(C)c1 | inconclusive: 22.4 µM [inhibitor, partial curve, poor fit]
COC(=O)CSc1ccc2nnc(-c3ccc(F)cc3)n2n1 | inactive
N/C(=N\c1nc(CSc2ccc(Cl)cc2)cc(=O)[nH]1)Nc1cccc2ccccc12 | inconclusive: 1.26 µM [inhibitor, single point]
Nc1c(C(=O)Nc2ccc(Br)cc2)sc2nc(-c3ccncc3)ccc12 | inconclusive: 5.62 µM [activator, partial curve]
COc1ccc(Nc2nc(N)nc(CSC(=S)N3CCN(c4ccccc4)CC3)n2)cc1 | inconclusive: 0.251 µM [inhibitor, full curve, poor fit]
COc1ccc(CNC(=S)N/N=C(/C)c2ccccc2)cc1 | inconclusive: 3.16 µM [inhibitor, partial curve, poor fit]
CC1Cc2ccccc2N1S(=O)(=O)c1cccc(C(=O)NCCCn2ccnc2)c1 (stereo not given) | inconclusive: 35.5 µM [inhibitor, single point]
COc1ccc2c(c1)CC/C(=C\c1ccc(OC)c(Cn3nc(C)cc3C)c1)C2=O | inconclusive: 20.6 µM [inhibitor, single point]

Compound | Potency
CCOC(=O)C1=NN(c2ccccc2)C2=NC(C)=C(C(=O)OC)C(c3ccc(C)cc3)N12 (stereo not given) | inconclusive: 11.2 µM [inhibitor, partial curve, poor fit]
CC(C)(C)NC(=O)C(c1cccs1)N(Cc1ccco1)C(=O)c1csnn1 (stereo not given) | inconclusive: 31.6 µM [inhibitor, single point]
Cc1cc(C)c(C#N)c(SCc2[nH]nc3c2[C@H](c2ccccc2)C(C#N)=C(N)O3)n1 | inconclusive: 7.3 µM [inhibitor, partial curve]
COc1ccc(OCC(=O)NNC(=O)Cc2coc3cc(OC)ccc23)cc1 | inconclusive: 15.8 µM [activator, single point]
C=CCSC(=S)NC1CCS(=O)(=O)C1 (stereo not given) | inconclusive: 11.2 µM [inhibitor, single point]
CC1CCCCN1CCNC(=O)CN1C(=O)CSc2ccc(S(=O)(=O)N3CCCCC3)cc21 (stereo not given) | inconclusive: 35.5 µM [inhibitor, single point]
COc1ccc(CCC(=O)OCC(=O)N(CC(C)C)c2c(N)n(Cc3ccccc3)c(=O)[nH]c2=O)cc1 | inconclusive: 0.447 µM [activator, full curve, poor fit]
Cc1cc(=O)n2nc(N3CCC(C(=O)Nc4ccc(Br)cc4F)CC3)sc2n1 | inconclusive: 35.5 µM [inhibitor, single point]
Cc1cccc(-n2ncc3c(NCCCn4ccnc4)ncnc32)c1 | inconclusive: 0.259 µM [activator, partial curve]
O=C1c2cccc3c2C(=C2C=CC=CC12)N=N3 (stereo not given) | inconclusive: 8.2 µM [activator, partial curve, poor fit]
CCN1CCN(c2ccc(S(=O)(=O)N3CCOCC3)cc2NC(=O)C(C)Oc2ccc(Cl)cc2)CC1 (stereo not given) | inconclusive: 10 µM [inhibitor, partial curve, poor fit]
N#CC1(NC(=O)CSc2nc3ccc([N+](=O)[O-])cc3s2)CCCCC1 | inconclusive: 20 µM [inhibitor, partial curve]
CCOC(=O)C1CCN(C(=O)c2cc(COc3ccc(F)cc3F)on2)CC1 | inconclusive: 0.708 µM [activator, full curve]
COc1nc(N(C)S(=O)(=O)c2ccc(C)cc2)nc(C)c1Cl | inactive
Nn1c(SCc2ccc(Br)cc2)nnc1-c1ccccn1 | inconclusive: 25.1 µM [activator, single point]
COc1ccc(Cn2c(O)c(/C=N/NC(=O)c3cccnc3)c3ccccc3c2=O)cc1 | inconclusive: 35.5 µM [inhibitor, single point]
Nc1nc2ccccc2n1/N=C/c1ccc(-c2ccccc2)o1 | inconclusive: 0.631 µM [inhibitor, full curve, poor fit]
CCN(CC)c1ccc(C(=O)OCC(=O)N(C(C)C)C(C)C)cc1 | inconclusive: 35.5 µM [inhibitor, single point]
CCOc1ccc(C(C(=O)NC2CCCCC2)N(C(=O)c2ccco2)c2ccc(-n3cnnn3)c(C)c2)cc1 (stereo not given) | inconclusive: 11.2 µM [inhibitor, single point]
Cc1ccc2nc3c(nc2c1C)C(O)=C3O | inconclusive: 6.31 µM [activator, single point]
Cc1ccc(S(=O)(=O)N2CCN(C(=O)c3cc(S(=O)(=O)N(C)C)ccc3N3CCCC3)CC2)c(C)c1 | inconclusive: 10 µM [inhibitor, partial curve, poor fit]
O=C(c1ccccc1)N1CCN(c2ccc([N+](=O)[O-])c(NCc3cccnc3)c2)CC1 | inconclusive: 11.2 µM [inhibitor, partial curve, poor fit]

Compound | Potency
O=C(CN1C(=O)CCS(=O)(=O)c2ccccc21)Nc1ccc(Cl)cc1 | inactive
O=C(Nc1ccc(N2CCN(C(=O)c3ccccc3)CC2)c(Cl)c1)c1ccco1 | inconclusive: 35.5 µM [inhibitor, single point]
COc1ccc(O)c(/C=N/Nc2nc3ccccc3[nH]2)c1 | inactive
Cc1ccc([C@H]2C[C@@H](O)[C@H](n3cc(C4CC4)nn3)CN2CC2CCCCC2)cc1 | inconclusive: 15.8 µM [inhibitor, partial curve, poor fit]
COc1ccc(C(=O)OCC(=O)NCC2CCCCC2)cc1F | inconclusive: 0.562 µM [activator, full curve, poor fit]
Cc1ccc(NC(=O)CCCNC(=O)c2ccc(Cl)cc2)cc1S(=O)(=O)N1CCCCC1 | inactive
O=C(Nc1ccc(OC(=O)c2ccncc2)cc1)c1ccncc1 | inconclusive: 5.01 µM [inhibitor, partial curve, poor fit]
c1ccc2c(c1)nc(N1CCOCC1)c1ccccc12 | inactive
CC(C)Cn1cnc2c(SCc3ccccn3)nc(N)nc21 | inconclusive: 22.4 µM [activator, single point]
Cc1cc(=O)oc2cc(OCC(=O)Nc3nnc(C(C)C)s3)ccc12 | inactive
O=[N+]([O-])c1cccc(-c2ccc(/C=N/NC(=S)Nc3ccccc3)o2)c1 | inactive
CCN(CC)CCCNC(=O)CCc1ccccc1 | inconclusive: 35.5 µM [activator, single point]
O=C(OCCOCCN=C1NS(=O)(=O)c2ccccc21)c1ccc(F)cc1 | inactive
Cc1ccc(S(=O)(=O)NC(=O)NC(C)Cc2ccccc2)cc1 (stereo not given) | inactive
COCCCN=Cc1c(-c2ccccc2)[nH]n(-c2nc3ccccc3s2)c1=O | inconclusive: 35.5 µM [inhibitor, single point]
O[C@@H]1C[C@H](c2ccccc2)N(Cc2cccs2)C[C@@H]1n1cc(C2CC2)nn1 | inconclusive: 4.99 µM [activator, partial curve, poor fit]
CCc1ccc(NC(=O)CSc2nc(=O)n(CCCN(C)C)c3c2CCC3)cc1 | inconclusive: 10 µM [inhibitor, partial curve, poor fit]
CCOC(=O)C1C2C=CC3(CN(Cc4ccco4)C(=O)C13)O2 (stereo not given) | inactive
COc1cccc(NC(=O)CSc2nnc(Cn3nnc4ccccc43)n2C)c1 | inconclusive: 15.8 µM [inhibitor, single point]
CN(C)c1ccc(/C(=N\O)c2ccccc2)cc1 | inactive
COc1cc(C2c3c(oc4ccccc4c3=O)C(=O)N2Cc2ccco2)ccc1O (stereo not given) | inconclusive: 7.94 µM [inhibitor, partial curve, poor fit]

Already shown: 4 of the compounds above.
Compound | Potency
O=[N+]([O-])c1cccc(-c2ccc(/C=N/NC(=S)Nc3ccccc3)o2)c1 | inactive
CCN(CC)CCCNC(=O)CCc1ccccc1 | inconclusive: 35.5 µM [activator, single point]
O=C(OCCOCCN=C1NS(=O)(=O)c2ccccc21)c1ccc(F)cc1 | inactive
Cc1ccc(S(=O)(=O)NC(=O)NC(C)Cc2ccccc2)cc1 (stereo not given) | inactive
